# Reference: the supplement of paper PMC10849652
# Amino acid sequences for entries named in this document (tags omitted). A change or cut given only in a name is not applied to a line headed by its entry.
# UniProt Q9HCG7: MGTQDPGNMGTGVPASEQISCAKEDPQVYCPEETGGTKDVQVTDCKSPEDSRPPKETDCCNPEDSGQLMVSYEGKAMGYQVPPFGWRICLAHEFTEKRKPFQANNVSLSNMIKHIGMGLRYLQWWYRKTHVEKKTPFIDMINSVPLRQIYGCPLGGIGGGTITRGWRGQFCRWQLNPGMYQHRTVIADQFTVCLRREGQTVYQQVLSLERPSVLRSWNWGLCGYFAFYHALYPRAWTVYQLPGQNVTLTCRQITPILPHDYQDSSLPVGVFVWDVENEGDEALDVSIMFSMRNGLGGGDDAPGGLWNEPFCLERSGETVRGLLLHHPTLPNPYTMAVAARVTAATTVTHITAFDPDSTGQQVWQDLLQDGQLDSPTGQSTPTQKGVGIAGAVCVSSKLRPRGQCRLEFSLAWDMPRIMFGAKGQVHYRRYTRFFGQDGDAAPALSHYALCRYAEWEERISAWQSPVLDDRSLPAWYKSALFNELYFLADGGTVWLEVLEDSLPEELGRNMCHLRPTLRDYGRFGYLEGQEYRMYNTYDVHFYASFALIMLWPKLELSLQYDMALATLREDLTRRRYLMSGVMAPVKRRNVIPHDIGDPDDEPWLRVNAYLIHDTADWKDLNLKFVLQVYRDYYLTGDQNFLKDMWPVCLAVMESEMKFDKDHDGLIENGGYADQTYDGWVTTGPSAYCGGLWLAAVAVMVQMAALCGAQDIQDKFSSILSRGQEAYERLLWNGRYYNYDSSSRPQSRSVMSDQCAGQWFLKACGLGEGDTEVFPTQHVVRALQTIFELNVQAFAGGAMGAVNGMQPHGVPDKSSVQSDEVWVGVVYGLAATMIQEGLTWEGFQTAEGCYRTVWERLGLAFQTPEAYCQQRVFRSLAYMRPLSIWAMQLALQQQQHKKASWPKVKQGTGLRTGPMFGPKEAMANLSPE
# UniProt P15407: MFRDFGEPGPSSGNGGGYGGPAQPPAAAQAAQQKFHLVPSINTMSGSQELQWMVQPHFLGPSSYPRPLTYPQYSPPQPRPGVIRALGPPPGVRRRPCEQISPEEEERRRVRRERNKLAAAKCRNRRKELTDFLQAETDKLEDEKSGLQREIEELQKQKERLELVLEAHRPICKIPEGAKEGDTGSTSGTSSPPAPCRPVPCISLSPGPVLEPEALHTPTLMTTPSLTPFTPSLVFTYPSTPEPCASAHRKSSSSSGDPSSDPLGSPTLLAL
# UniProt Q92837: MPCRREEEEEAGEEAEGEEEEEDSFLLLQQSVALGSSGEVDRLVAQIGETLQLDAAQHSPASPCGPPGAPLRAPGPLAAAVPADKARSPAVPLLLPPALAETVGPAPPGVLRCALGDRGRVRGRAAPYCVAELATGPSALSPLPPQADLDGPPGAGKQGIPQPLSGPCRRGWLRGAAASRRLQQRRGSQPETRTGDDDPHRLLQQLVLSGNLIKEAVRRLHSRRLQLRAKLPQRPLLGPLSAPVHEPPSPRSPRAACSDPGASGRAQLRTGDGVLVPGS
# UniProt Q9UP38, whole entry, looked up: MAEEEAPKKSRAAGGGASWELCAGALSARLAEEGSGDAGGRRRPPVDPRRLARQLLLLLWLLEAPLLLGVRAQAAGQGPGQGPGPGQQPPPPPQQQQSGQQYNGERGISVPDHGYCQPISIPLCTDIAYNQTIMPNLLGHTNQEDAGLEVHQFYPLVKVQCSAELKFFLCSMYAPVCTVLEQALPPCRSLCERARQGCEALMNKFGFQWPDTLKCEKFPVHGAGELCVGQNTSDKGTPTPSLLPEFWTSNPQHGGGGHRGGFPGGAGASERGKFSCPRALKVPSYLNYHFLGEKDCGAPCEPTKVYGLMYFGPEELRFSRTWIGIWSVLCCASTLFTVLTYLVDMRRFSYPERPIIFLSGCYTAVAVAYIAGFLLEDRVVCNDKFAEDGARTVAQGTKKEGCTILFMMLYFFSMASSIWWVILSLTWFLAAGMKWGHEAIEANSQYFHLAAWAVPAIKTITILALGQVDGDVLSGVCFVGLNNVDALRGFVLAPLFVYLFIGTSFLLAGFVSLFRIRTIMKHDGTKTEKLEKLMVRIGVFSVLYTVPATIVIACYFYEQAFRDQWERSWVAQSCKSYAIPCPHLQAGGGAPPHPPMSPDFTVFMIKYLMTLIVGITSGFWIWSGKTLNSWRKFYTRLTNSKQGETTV
# UniProt Q14393: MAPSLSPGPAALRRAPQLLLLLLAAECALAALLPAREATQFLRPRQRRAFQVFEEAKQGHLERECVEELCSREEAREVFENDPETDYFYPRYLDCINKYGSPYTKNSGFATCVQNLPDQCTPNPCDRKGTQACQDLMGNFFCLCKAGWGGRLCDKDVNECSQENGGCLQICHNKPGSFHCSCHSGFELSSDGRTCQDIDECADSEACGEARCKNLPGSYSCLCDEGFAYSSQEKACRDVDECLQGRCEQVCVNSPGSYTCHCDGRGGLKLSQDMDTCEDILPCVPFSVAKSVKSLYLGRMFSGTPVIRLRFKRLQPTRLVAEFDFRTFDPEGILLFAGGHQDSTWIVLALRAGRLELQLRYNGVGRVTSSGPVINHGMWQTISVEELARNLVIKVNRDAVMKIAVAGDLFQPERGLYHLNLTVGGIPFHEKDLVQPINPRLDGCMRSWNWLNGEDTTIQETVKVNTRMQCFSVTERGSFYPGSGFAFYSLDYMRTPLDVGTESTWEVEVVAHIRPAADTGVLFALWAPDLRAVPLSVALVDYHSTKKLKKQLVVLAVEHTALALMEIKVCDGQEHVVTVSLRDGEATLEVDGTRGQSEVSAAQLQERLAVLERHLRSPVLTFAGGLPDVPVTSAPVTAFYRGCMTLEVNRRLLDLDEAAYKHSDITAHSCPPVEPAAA
# UniProt Q9UET6: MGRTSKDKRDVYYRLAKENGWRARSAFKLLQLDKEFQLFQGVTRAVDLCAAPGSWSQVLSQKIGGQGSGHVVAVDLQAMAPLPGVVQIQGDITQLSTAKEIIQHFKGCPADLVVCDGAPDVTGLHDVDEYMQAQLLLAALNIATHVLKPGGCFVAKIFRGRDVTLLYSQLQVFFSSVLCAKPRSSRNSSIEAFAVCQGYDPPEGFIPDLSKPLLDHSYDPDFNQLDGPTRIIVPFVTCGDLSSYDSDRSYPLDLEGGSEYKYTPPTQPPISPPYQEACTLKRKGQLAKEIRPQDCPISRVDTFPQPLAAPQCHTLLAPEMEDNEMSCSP
# UniProt Q9NY12: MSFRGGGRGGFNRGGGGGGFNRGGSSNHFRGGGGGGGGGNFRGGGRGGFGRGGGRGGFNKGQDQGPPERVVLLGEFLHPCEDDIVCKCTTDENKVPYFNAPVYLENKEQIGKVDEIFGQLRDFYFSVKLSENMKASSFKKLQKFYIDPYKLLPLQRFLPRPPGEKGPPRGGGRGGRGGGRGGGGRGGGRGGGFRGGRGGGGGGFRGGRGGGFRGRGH
# UniProt Q9NXN4: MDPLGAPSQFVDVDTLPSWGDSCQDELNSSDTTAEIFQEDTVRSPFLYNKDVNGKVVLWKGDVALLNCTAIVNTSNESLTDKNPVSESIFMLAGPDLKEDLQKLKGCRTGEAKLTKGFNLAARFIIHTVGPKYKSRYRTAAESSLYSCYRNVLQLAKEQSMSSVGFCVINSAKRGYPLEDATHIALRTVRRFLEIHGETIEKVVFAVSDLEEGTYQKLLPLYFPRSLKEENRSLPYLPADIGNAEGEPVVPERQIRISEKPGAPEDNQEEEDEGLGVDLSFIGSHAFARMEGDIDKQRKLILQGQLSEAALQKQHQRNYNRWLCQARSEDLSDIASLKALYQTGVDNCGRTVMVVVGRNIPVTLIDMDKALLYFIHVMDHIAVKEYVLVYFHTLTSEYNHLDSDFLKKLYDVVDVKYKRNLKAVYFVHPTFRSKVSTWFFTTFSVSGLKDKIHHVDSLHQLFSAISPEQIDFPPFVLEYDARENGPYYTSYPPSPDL
# UniProt Q8N4A0: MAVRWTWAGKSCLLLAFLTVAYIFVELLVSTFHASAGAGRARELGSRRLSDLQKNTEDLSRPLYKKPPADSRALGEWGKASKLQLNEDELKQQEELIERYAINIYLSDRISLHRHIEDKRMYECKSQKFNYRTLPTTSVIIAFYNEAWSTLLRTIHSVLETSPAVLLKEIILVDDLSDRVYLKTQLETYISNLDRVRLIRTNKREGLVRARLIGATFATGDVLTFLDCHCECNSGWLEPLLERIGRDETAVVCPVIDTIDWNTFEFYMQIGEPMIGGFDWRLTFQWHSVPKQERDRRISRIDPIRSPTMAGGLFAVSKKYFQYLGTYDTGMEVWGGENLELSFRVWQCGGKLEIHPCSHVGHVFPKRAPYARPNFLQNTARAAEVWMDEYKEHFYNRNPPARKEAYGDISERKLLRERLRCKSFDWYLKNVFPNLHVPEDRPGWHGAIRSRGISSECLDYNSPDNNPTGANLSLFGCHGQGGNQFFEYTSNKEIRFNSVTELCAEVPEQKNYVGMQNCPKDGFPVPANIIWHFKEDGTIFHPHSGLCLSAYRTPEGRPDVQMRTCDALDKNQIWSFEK
# UniProt Q8IVP5: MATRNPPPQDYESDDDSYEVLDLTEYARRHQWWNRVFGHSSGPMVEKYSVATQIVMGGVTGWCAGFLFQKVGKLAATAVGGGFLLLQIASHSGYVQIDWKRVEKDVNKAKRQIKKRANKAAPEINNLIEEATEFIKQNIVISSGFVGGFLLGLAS
# UniProt Q14435: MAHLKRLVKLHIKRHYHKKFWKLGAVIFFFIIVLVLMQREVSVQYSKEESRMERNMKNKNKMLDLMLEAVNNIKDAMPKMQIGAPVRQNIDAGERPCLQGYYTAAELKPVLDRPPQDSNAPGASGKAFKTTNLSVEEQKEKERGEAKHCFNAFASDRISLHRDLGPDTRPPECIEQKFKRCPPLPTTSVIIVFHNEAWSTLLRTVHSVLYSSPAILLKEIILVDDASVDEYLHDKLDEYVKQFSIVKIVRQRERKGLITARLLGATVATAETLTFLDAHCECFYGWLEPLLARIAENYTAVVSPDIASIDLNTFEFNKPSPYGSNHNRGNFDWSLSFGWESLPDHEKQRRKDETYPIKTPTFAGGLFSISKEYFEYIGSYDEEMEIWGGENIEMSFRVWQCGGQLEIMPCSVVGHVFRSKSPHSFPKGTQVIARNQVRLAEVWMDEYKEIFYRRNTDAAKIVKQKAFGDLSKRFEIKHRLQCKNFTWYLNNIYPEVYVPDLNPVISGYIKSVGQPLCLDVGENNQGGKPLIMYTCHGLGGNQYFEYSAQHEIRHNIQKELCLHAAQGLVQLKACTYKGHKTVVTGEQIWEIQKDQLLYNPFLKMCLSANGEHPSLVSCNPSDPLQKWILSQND
# UniProt Q9P0K8: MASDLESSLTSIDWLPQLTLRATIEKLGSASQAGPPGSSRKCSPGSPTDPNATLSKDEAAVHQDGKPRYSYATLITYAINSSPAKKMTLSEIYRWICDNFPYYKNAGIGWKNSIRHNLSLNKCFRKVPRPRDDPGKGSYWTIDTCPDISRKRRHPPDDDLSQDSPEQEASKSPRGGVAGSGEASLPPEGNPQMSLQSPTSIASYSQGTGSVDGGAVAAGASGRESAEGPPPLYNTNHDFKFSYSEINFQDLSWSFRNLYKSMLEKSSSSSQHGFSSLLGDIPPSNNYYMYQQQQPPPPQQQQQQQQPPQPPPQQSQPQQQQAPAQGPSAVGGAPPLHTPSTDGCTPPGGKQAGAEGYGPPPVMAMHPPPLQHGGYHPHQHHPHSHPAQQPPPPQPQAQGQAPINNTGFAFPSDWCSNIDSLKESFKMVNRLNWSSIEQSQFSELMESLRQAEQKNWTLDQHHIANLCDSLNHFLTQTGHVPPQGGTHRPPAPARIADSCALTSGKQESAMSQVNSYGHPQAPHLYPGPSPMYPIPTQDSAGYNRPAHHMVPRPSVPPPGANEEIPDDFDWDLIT
# UniProt Q6P4F1: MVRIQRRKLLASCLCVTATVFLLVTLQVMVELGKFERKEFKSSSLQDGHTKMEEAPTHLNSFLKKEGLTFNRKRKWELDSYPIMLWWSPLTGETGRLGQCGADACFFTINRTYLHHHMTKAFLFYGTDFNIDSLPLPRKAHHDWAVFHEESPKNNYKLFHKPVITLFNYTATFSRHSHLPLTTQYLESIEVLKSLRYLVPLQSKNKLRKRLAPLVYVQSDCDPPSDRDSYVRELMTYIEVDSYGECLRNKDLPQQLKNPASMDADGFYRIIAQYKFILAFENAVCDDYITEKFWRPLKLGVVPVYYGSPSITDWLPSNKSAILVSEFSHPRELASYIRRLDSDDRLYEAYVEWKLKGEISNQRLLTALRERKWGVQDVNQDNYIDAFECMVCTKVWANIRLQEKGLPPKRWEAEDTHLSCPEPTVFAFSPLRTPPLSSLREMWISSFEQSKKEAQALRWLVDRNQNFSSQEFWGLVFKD
# UniProt P27469: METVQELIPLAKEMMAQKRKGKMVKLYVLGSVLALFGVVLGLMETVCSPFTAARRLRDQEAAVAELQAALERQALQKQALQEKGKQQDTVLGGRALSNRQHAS
# UniProt P22466: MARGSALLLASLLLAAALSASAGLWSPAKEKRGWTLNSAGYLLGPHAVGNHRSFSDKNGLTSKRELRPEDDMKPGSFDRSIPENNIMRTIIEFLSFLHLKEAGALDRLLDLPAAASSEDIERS
# Some of the results follow.
# Key:
# Assay in all cases: log2 fold change, soluble protein after heating vs DMSO (PISA); higher = thermal stabilisation; K562 cells, 10 uM, 30 min; active = over 0.2 and 3.5 SD of the protein, either way, in both replicates (recomputed)
# [1] = compound: CC1=C(C=C(C=C1)NC(=O)C2=CC(=CC=C2)C(C)(C)C#N)NC3=CC4=C(C=C3)N=CN(C4=O)C
# Procedure, shortened: (§1)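 Soluble protein was defined as the supernatant after 21,000xg for 90 min. It came from K562 cells at 2×10^6 cells/mL given 10 μM compound for 30 min, heated in aliquots for 3 min across 48°C-58°C, pooled, and extracted in PBS with 0.5% NP-40 at 4°C, and was quantified by TMTpro 16plex LC-MS/MS with equalised channel sums. Thermal stability against control samples, from duplicates, is reported as log2 fold change.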
# [2] = compound: CC1=CC=C(C=C1)SC2=C3C=C(SC3=CN=C2)C(=O)N
# Procedure, shortened: as §1
# [3] = compound: CC1=NC(=CC=C1)C2=C(N=C(N2)C(C)(C)C)C3=CC4=NC=CN=C4C=C3
# Procedure, shortened: as §1
# Nexturastat A = compound: CCCCN(Cc1ccc(C(=O)NO)cc1)C(=O)Nc1ccccc1 [Nexturastat A]
# Procedure, shortened: as §1
# vemurafenib = compound: CCCS(=O)(=O)Nc1ccc(F)c(C(=O)c2c[nH]c3ncc(-c4ccc(Cl)cc4)cc23)c1F [vemurafenib]
# Procedure, shortened: as §1
# [4] = compound: CCCS(=O)(=O)Nc1ccc(F)c(C(=O)c2c[nH]c3ncc(Cl)cc23)c1F
# Procedure, shortened: as §1
# [5] = compound: CCCc1cc(C)[nH]c(=O)c1CNC(=O)c1cc(-c2ccnc(N3CCN(C)CC3)c2)cc2c1cnn2C(C)C
# Procedure, shortened: as §1
# givinostat = compound: CCN(CC)Cc1ccc2cc(COC(=O)Nc3ccc(C(=O)NO)cc3)ccc2c1 [givinostat]
# Procedure, shortened: as §1
# barasertib = compound: CCN(CCCOc1ccc2c(Nc3cc(CC(=O)Nc4cccc(F)c4)[nH]n3)ncnc2c1)CCOP(=O)(O)O [barasertib]
# Procedure, shortened: as §1
# [6] = compound: CC1=C(C=C(C=C1)NC(=O)C2=CC(=CC=C2)N(C)C)NC(=O)C3=CC=C(C=C3)O
# Procedure, shortened: as §1
target,measurement,setting,value
GBA2 (UniProt Q9HCG7),log2 fold change,[1],inactive: -0.079
same,log2 fold change,[2],inactive: -0.043
same,log2 fold change,[3],inactive: 0
same,log2 fold change,Nexturastat A,inactive: 0.051
same,log2 fold change,vemurafenib,inactive: 0
same,log2 fold change,[4],inactive: -0.032
same,log2 fold change,[5],inactive: -0.076
same,log2 fold change,givinostat,inactive: -0.02
same,log2 fold change,barasertib,inactive: 0.008
FOSL1 (UniProt P15407),log2 fold change,[1],inactive: -0.036
same,log2 fold change,[2],inactive: -0.075
same,log2 fold change,[3],inactive: -0.068
same,log2 fold change,Nexturastat A,inactive: 0.037
same,log2 fold change,vemurafenib,inactive: -0.161
same,log2 fold change,[4],inactive: -0.071
same,log2 fold change,[5],inactive: 0.012
same,log2 fold change,givinostat,inactive: -0.006
same,log2 fold change,barasertib,inactive: -0.051
FUT8 (UniProt Q9BYC5),log2 fold change,[1],inactive: -0.05
same,log2 fold change,[6],inactive: -0.047
same,log2 fold change,[3],inactive: 0.037
same,log2 fold change,Nexturastat A,inactive: 0.064
same,log2 fold change,vemurafenib,inactive: -0.417
same,log2 fold change,[5],inactive: 0.048
same,log2 fold change,givinostat,inactive: -0.048
same,log2 fold change,barasertib,inactive: -0.014
FRAT1 (UniProt Q92837),log2 fold change,[6],inactive: 0.088
FZD1 (UniProt Q9UP38),log2 fold change,[1],inactive: -0.054
same,log2 fold change,Nexturastat A,inactive: 0.192
same,log2 fold change,vemurafenib,inactive: 0.145
same,log2 fold change,givinostat,inactive: 0.382
same,log2 fold change,barasertib,inactive: 0.306
GAS6 isoform 1 (UniProt Q14393),log2 fold change,[1],inactive: -0.028
same,log2 fold change,Nexturastat A,inactive: -0.04
same,log2 fold change,givinostat,inactive: 0.014
FRA10AC1 isoform 3 (UniProt Q70Z53),log2 fold change,[1],inactive: -0.068
same,log2 fold change,[2],inactive: 0.04
same,log2 fold change,[3],inactive: 0.041
same,log2 fold change,Nexturastat A,inactive: -0.096
same,log2 fold change,vemurafenib,inactive: 0.104
same,log2 fold change,[4],inactive: 0.001
same,log2 fold change,[5],inactive: -0.001
same,log2 fold change,givinostat,inactive: 0.052
same,log2 fold change,barasertib,inactive: -0.002
FOPNL (UniProt Q96NB1),log2 fold change,[1],inactive: -0.154
same,log2 fold change,[2],inactive: -0.002
same,log2 fold change,[3],inactive: 0.066
same,log2 fold change,Nexturastat A,inactive: 0.381
same,log2 fold change,vemurafenib,inactive: -0.012
same,log2 fold change,[4],inactive: -0.054
same,log2 fold change,[5],inactive: -0.248
same,log2 fold change,givinostat,inactive: 0.072
same,log2 fold change,barasertib,inactive: 0.031
FTSJ1 isoform 2 (UniProt Q9UET6),log2 fold change,[1],inactive: -0.083
same,log2 fold change,givinostat,inactive: 0.041
GAA (UniProt P10253),log2 fold change,[1],inactive: 0.03
same,log2 fold change,[3],inactive: 0.168
same,log2 fold change,Nexturastat A,inactive: 0.03
same,log2 fold change,vemurafenib,inactive: 0.071
same,log2 fold change,[5],inactive: 0.214
same,log2 fold change,givinostat,inactive: -0.019
GAR1 (UniProt Q9NY12),log2 fold change,[1],inactive: 0.012
same,log2 fold change,[6],inactive: -0.021
same,log2 fold change,[2],inactive: -0.035
same,log2 fold change,[3],inactive: -0.09
same,log2 fold change,Nexturastat A,inactive: 0.17
same,log2 fold change,vemurafenib,inactive: -0.05
same,log2 fold change,[4],inactive: -0.031
same,log2 fold change,[5],inactive: 0.099
same,log2 fold change,givinostat,inactive: 0.023
same,log2 fold change,barasertib,inactive: -0.079
GCC2 (UniProt Q8IWJ2),log2 fold change,[1],inactive: -0.004
same,log2 fold change,[6],inactive: -0.012
same,log2 fold change,[2],inactive: -0.016
same,log2 fold change,[3],inactive: -0.031
same,log2 fold change,Nexturastat A,active: 0.322
same,log2 fold change,vemurafenib,inactive: 0.025
same,log2 fold change,[4],inactive: 0.01
same,log2 fold change,[5],inactive: 0.073
same,log2 fold change,givinostat,inactive: 0.05
same,log2 fold change,barasertib,inactive: -0.037
GGT1 (UniProt P19440),log2 fold change,[1],inactive: -0.01
same,log2 fold change,[2],inactive: 0.015
same,log2 fold change,[3],inactive: 0.009
same,log2 fold change,Nexturastat A,inactive: 0.178
same,log2 fold change,[4],inactive: 0.02
same,log2 fold change,[5],inactive: -0.08
same,log2 fold change,givinostat,inactive: 0.031
same,log2 fold change,barasertib,inactive: -0.059
GDAP2 (UniProt Q9NXN4),log2 fold change,[1],inactive: 0.072
same,log2 fold change,[3],inactive: -0.091
same,log2 fold change,Nexturastat A,inactive: 0.163
same,log2 fold change,[5],inactive: 0.225
same,log2 fold change,givinostat,inactive: 0.238
GALNT4 (UniProt Q8N4A0),log2 fold change,[1],inactive: 0.008
same,log2 fold change,[6],inactive: 0.017
same,log2 fold change,[2],inactive: -0.029
same,log2 fold change,[3],inactive: 0.013
same,log2 fold change,Nexturastat A,inactive: -0.049
same,log2 fold change,vemurafenib,inactive: -0.037
same,log2 fold change,[4],inactive: -0.001
same,log2 fold change,[5],inactive: -0.01
same,log2 fold change,givinostat,inactive: 0.005
same,log2 fold change,barasertib,inactive: 0.011
FZD5 (UniProt Q13467),log2 fold change,[1],inactive: -0.166
same,log2 fold change,[2],inactive: -0.033
same,log2 fold change,Nexturastat A,inactive: 0.118
same,log2 fold change,[4],inactive: -0.26
same,log2 fold change,[5],inactive: -0.124
same,log2 fold change,givinostat,inactive: 0.237
same,log2 fold change,barasertib,inactive: 0.16
FUNDC1 (UniProt Q8IVP5),log2 fold change,[1],inactive: 0.007
same,log2 fold change,[2],inactive: 0.118
same,log2 fold change,[4],inactive: -0.013
same,log2 fold change,[5],inactive: -0.285
same,log2 fold change,barasertib,inactive: 0.052
GCFC2 (UniProt P16383),log2 fold change,[1],inactive: -0.105
same,log2 fold change,[6],inactive: 0.063
same,log2 fold change,[2],inactive: -0.007
same,log2 fold change,Nexturastat A,inactive: 0.029
same,log2 fold change,vemurafenib,inactive: 0.041
same,log2 fold change,[4],inactive: 0.052
same,log2 fold change,[5],inactive: 0.036
same,log2 fold change,givinostat,inactive: -0.026
same,log2 fold change,barasertib,inactive: -0.035
GABPB1 isoform 3 (UniProt Q06547),log2 fold change,[2],inactive: 0.224
same,log2 fold change,vemurafenib,inactive: 0.112
same,log2 fold change,[4],inactive: -0.049
same,log2 fold change,[5],inactive: -0.007
same,log2 fold change,barasertib,inactive: 0.071
GFOD2 (UniProt Q3B7J2),log2 fold change,Nexturastat A,inactive: 0.013
GATC (UniProt O43716),log2 fold change,[6],inactive: -0.217
same,log2 fold change,[2],inactive: -0.064
same,log2 fold change,[3],inactive: 0.057
same,log2 fold change,Nexturastat A,inactive: -0.378
same,log2 fold change,vemurafenib,inactive: 0.059
same,log2 fold change,[4],inactive: -0.003
same,log2 fold change,[5],inactive: -0.024
same,log2 fold change,barasertib,inactive: 0.144
GALNT3 (UniProt Q14435),log2 fold change,givinostat,inactive: -0.109
GDPGP1 (UniProt Q6ZNW5),log2 fold change,[2],inactive: -0.012
same,log2 fold change,[4],inactive: 0.003
same,log2 fold change,[5],inactive: -0.053
same,log2 fold change,givinostat,inactive: 0.177
GDI2 (UniProt Q5SX86),log2 fold change,[6],inactive: 0.009
same,log2 fold change,[3],inactive: 0.049
same,log2 fold change,Nexturastat A,inactive: -0.154
same,log2 fold change,givinostat,inactive: 0.1
same,log2 fold change,barasertib,inactive: -0.004
FRMD8 (UniProt Q9BZ67),log2 fold change,Nexturastat A,inactive: 0.195
GFOD1 (UniProt Q9NXC2),log2 fold change,[2],inactive: -0.562
same,log2 fold change,[3],inactive: -0.201
same,log2 fold change,Nexturastat A,inactive: 0.053
same,log2 fold change,[4],inactive: -1.4
same,log2 fold change,givinostat,inactive: 0.262
FYTTD1 (UniProt Q96QD9),log2 fold change,Nexturastat A,inactive: 0.065
G6PD (UniProt E7EUI8),log2 fold change,[3],inactive: 0.14
FRYL isoform 2 (UniProt O94915),log2 fold change,[6],inactive: 0.029
same,log2 fold change,[2],inactive: -0.023
same,log2 fold change,Nexturastat A,inactive: 0.102
same,log2 fold change,vemurafenib,inactive: 0.076
same,log2 fold change,[4],inactive: 0.128
GDPD3 (UniProt Q7L5L3),log2 fold change,[2],inactive: -0.117
same,log2 fold change,Nexturastat A,inactive: -0.019
same,log2 fold change,vemurafenib,inactive: 0.173
same,log2 fold change,[4],inactive: -0.285
same,log2 fold change,givinostat,inactive: 0.026
FUT4 (UniProt P22083),log2 fold change,[3],inactive: 0.2
GAGE1 (UniProt Q13065),log2 fold change,[5],inactive: -0.177
FOXJ2 (UniProt Q9P0K8),log2 fold change,vemurafenib,inactive: 0.171
FUT10 isoform 2 (UniProt Q6P4F1),log2 fold change,Nexturastat A,inactive: -0.278
GGACT (UniProt Q9BVM4),log2 fold change,[6],inactive: 0.066
same,log2 fold change,[5],inactive: 0.013
G0S2 (UniProt P27469),log2 fold change,[5],inactive: 0.067
GAL (UniProt P22466),log2 fold change,[6],inactive: 0.126
same,log2 fold change,[3],inactive: 0
same,log2 fold change,vemurafenib,inactive: -0.007
same,log2 fold change,givinostat,inactive: 0.151
same,log2 fold change,barasertib,inactive: -0.051
GAPDH isoform 2 (UniProt P04406),log2 fold change,[5],inactive: -0.311
same,log2 fold change,givinostat,inactive: 0.057

# Rewritten bar-delimited: part of the list above.
target | measurement | setting | value
GCFC2 (UniProt P16383) | log2 fold change | Nexturastat A | inactive: 0.029
same | log2 fold change | vemurafenib | inactive: 0.041
same | log2 fold change | [4] | inactive: 0.052
same | log2 fold change | [5] | inactive: 0.036
same | log2 fold change | givinostat | inactive: -0.026
same | log2 fold change | barasertib | inactive: -0.035
GABPB1 isoform 3 (UniProt Q06547) | log2 fold change | [2] | inactive: 0.224
same | log2 fold change | vemurafenib | inactive: 0.112
same | log2 fold change | [4] | inactive: -0.049
same | log2 fold change | [5] | inactive: -0.007
same | log2 fold change | barasertib | inactive: 0.071
GFOD2 (UniProt Q3B7J2) | log2 fold change | Nexturastat A | inactive: 0.013
GATC (UniProt O43716) | log2 fold change | [6] | inactive: -0.217
same | log2 fold change | [2] | inactive: -0.064
same | log2 fold change | [3] | inactive: 0.057
same | log2 fold change | Nexturastat A | inactive: -0.378
same | log2 fold change | vemurafenib | inactive: 0.059
same | log2 fold change | [4] | inactive: -0.003
same | log2 fold change | [5] | inactive: -0.024
same | log2 fold change | barasertib | inactive: 0.144
GALNT3 (UniProt Q14435) | log2 fold change | givinostat | inactive: -0.109
GDPGP1 (UniProt Q6ZNW5) | log2 fold change | [2] | inactive: -0.012
same | log2 fold change | [4] | inactive: 0.003
same | log2 fold change | [5] | inactive: -0.053
same | log2 fold change | givinostat | inactive: 0.177
GDI2 (UniProt Q5SX86) | log2 fold change | [6] | inactive: 0.009
same | log2 fold change | [3] | inactive: 0.049
same | log2 fold change | Nexturastat A | inactive: -0.154
same | log2 fold change | givinostat | inactive: 0.1
same | log2 fold change | barasertib | inactive: -0.004
FRMD8 (UniProt Q9BZ67) | log2 fold change | Nexturastat A | inactive: 0.195
GFOD1 (UniProt Q9NXC2) | log2 fold change | [2] | inactive: -0.562
same | log2 fold change | [3] | inactive: -0.201
same | log2 fold change | Nexturastat A | inactive: 0.053
same | log2 fold change | [4] | inactive: -1.4
same | log2 fold change | givinostat | inactive: 0.262
FYTTD1 (UniProt Q96QD9) | log2 fold change | Nexturastat A | inactive: 0.065
G6PD (UniProt E7EUI8) | log2 fold change | [3] | inactive: 0.14
FRYL isoform 2 (UniProt O94915) | log2 fold change | [6] | inactive: 0.029
same | log2 fold change | [2] | inactive: -0.023
same | log2 fold change | Nexturastat A | inactive: 0.102
same | log2 fold change | vemurafenib | inactive: 0.076
same | log2 fold change | [4] | inactive: 0.128
GDPD3 (UniProt Q7L5L3) | log2 fold change | [2] | inactive: -0.117
same | log2 fold change | Nexturastat A | inactive: -0.019
same | log2 fold change | vemurafenib | inactive: 0.173
same | log2 fold change | [4] | inactive: -0.285
